## Primary screen of a compound library

The filed quantity is “Percent Effect” (%).
The controls that fix the scale are not given in the record; negative values are as filed.
This is an unselected part of the compounds tested.

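Assay of Toxoplasma gondii numbers, read through their beta-galactosidase reporter with a colour substrate. Tested at 50 µM. The record gives no direction; the compounds picked for IC50 retests had high values, so higher reads as fewer parasites. About 18,000 compounds were tested under these conditions; 0.94% (about 170) showed 50% or more at least once.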

SMILES | Percent Effect
CC(NS(C)(=O)=O)c1cccnc1 (stereo not drawn) | -3.128%
Cc1ccccc1CSCC(=O)NCC1(O)CCNC1 (stereo not drawn) | -3.796%
COC(=O)Cn1cc(I)cc(C)c1=O | 2.492%
CCOc1ccc(C(C)=O)cc1CN1CCCC1 | -0.05674%
CCC1CN(S(=O)(=O)c2cccc(C#N)c2)CCO1 (stereo not drawn) | -8.779%
NC1CCN(C(=O)Cc2ccccc2)C1 (stereo not drawn) | -7.168%
COCc1noc(CCNC(=O)[C@H]2CCC[C@H](O)C2)n1 | -8.505%
CNc1cc(-c2cccc(OC)c2OC)nc(N)n1 | 50.78%
NC(=O)N(Cc1cccs1)CC1CCCO1 (stereo not drawn) | -14.06%
NCCN1CCNC(=O)C1 | 17.58%
CCOc1cccc(NC(=O)Cc2ccccc2O)n1 | -6.287%
CN(C)c1ccc(C(=O)NCCc2c[nH]cn2)cn1 | 13.69%
CC(C)(N)Cc1nc2ccccc2[nH]1 | -20.72%
CCN1CC(C(=O)N2CCc3ccccc3C2)CC1=O (stereo not drawn) | 4.453%
CC(=O)NC(C)(C)C(=O)N1C[C@H](C2CC2)[C@@H](N)C1 | 7.885%
NC(=O)OCCNC(=O)c1occc1Br | 5.554%
OC[C@@H]1CN(C2CCC2)C[C@H]1c1nc(C2CC2)no1 | -0.3694%
Cc1c[nH]c(C(=O)NC2CCN(CC(N)=O)CC2)n1 | -4.072%
COC(=O)CCCC(=O)Nc1ncccc1Cl | 9.807%
COCCNC(=O)c1c(Cl)cnn1C | -0.3112%
O=C(Nc1ccnc(CO)c1)c1ccc(F)cc1I | 6.511%
CCN1CCCCC1C(=O)NCCc1ccco1 (stereo not drawn) | -0.877%
Cc1ccc(CNC(=O)c2ccc(S(C)(=O)=O)cc2)s1 | -7.19%
OCC(c1ccc(F)cc1)N1CCNCC1 (stereo not drawn) | -8.679%
CC(C(=O)NC(N)=O)N(C)Cc1ccc(Br)o1 (stereo not drawn) | -10.99%
N#CCCCS(=O)(=O)N1CCCC1c1ccco1 (stereo not drawn) | 11.82%
Cc1ccc(F)c(NS(C)(=O)=O)c1 | 22.58%
O=C(Cc1ccc2c(c1)OCO2)N[C@H]1C[C@@H]2OCC[C@H]12 | -15.27%
CC(C)CN1CCC(O)CC1 | -1.94%
CCN(C(=O)COc1ccccc1)C1CCS(=O)(=O)C1 (stereo not drawn) | 3.49%

From ChEMBL document CHEMBL3988442, “University of Dundee, Small-Polar-MMV Screening Library” (2021).